Earlier results in patent US20050113271A1, “Automatic dishwashing detergent with improved glass anti-corrosion properties II” (priority 2002, published 2005).
Some of these results come from one statement about several compounds together.

Conditions: 20° C. water temperature

zinc laurate
solubility in water (insoluble / soluble organic zinc salts): below 100 mg/l
